Results deposited as PubChem BioAssay AID1224826 (NIAID, 2016).
Shown is an unselected part of about 17,000 reagents tested. About 1,110 of all reagents (6.6%) were called active. 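Active means lowered or raised reporter signal; replicate intensities are raw and not normalised per plate.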 The numbers tell different reagents against one gene apart. A reagent listed more than once was tested more than once; the source does not tell the runs apart. No sequences are given here.

- Assay: 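Genes that change LPS-induced Tnf promoter activity in mouse macrophages when knocked down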 (primary screen)
- Cell system: RAW264.7 G9 macrophages from mouse bearing reporters for p65 (GFP) and the Tnf promoter (mCherry)
- Reagent: siRNA pool against mouse genes, 100 nM
- Time to read-out: 16 h of LPS stimulation, after 2 days of siRNA transfection
- Challenge: bacterial lipopolysaccharide (Salmonella minnesota R595), 10 ng/ml
- Measurement: 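Imaged Tnf reporter mCherry in nuclei, minus background, normalised per plate to the median and expressed as robust z-scores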
- Direction: Tnf reporter robust z-score: higher = stronger Tnf promoter reporter signal after LPS; Tnf reporter intensity: higher = stronger Tnf promoter reporter signal
- Active means: 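Called active when robust z-score is at most -1.3, matching the median of the Tlr4 knock-down control, or over 3; control wells and wells with under 50 cells never active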
- Meaning of the calls: active = Tnf reporter clearly lowered or raised; inactive = no clear change in Tnf reporter

Gene,reagent,Tnf reporter robust z-score,fewer than 50 cells in well,"Tnf reporter intensity, replicate 1","Tnf reporter intensity, replicate 2",outcome
Or10d5 (olfactory receptor family 10 subfamily D member 5),1,0.05,enough cells in well,150,136,inactive
Sh3rf1 (SH3 domain containing ring finger 1),1,0.09,enough cells in well,126,80.8,inactive
Tmprss6 (transmembrane serine protease 6),1,,fewer than 50 cells per well; well left out of calls,44.3,59.2,inactive
Smarcd2 (SWI/SNF related BAF chromatin remodeling complex subunit D2),1,-0.09,enough cells in well,264,214,inactive
Dchs1 (dachsous cadherin related 1),1,-0.73,enough cells in well,127,111,inactive
Or5p50 (olfactory receptor family 5 subfamily P member 50),1,0.89,enough cells in well,100,154,inactive
Grk4 (G protein-coupled receptor kinase 4),1,1.09,enough cells in well,172,216,inactive
Grk4 (G protein-coupled receptor kinase 4),1,0.79,enough cells in well,236,438,inactive
D430041D05Rik (RIKEN cDNA D430041D05 gene),1,0.15,enough cells in well,224,261,inactive
Daam1 (dishevelled associated activator of morphogenesis 1),1,0.5,enough cells in well,356,172,inactive
Gbp3 (guanylate binding protein 3),1,-0.67,enough cells in well,163,125,inactive
Epc2 (enhancer of polycomb homolog 2),1,-1.03,enough cells in well,115,120,inactive
Wfdc2 (WAP four-disulfide core domain 2),1,-0.36,enough cells in well,189,138,inactive
"Wasf1 (WASP family, member 1)",1,-0.91,enough cells in well,202,141,inactive
Or2w2 (olfactory receptor family 2 subfamily W member 2),1,-0.02,enough cells in well,183,96.2,inactive
"Mrgprb3 (MAS-related GPR, member B3)",1,0.1,enough cells in well,271,88.6,inactive
Zfp771 (zinc finger protein 771),1,-1.48,enough cells in well,108,78.4,active
"Tgfbi (transforming growth factor, beta induced)",1,-0.69,enough cells in well,184,99.3,inactive
Coil (coilin),1,-0.8,enough cells in well,137,127,inactive
Adam28 (a disintegrin and metallopeptidase domain 28),1,-0.92,enough cells in well,116,99.9,inactive
Yars2 (tyrosyl-tRNA synthetase 2 (mitochondrial)),1,,fewer than 50 cells per well; well left out of calls,96.9,65.5,inactive
Lancl1 (LanC (bacterial lantibiotic synthetase component C)-like 1),1,-0.23,enough cells in well,235,208,inactive
"Pigv (phosphatidylinositol glycan anchor biosynthesis, class V)",1,1.33,enough cells in well,281,227,inactive
Tprg1l (transformation related protein 63 regulated 1 like),1,1.65,enough cells in well,330,132,inactive
Carmil1 (capping protein regulator and myosin 1 linker 1),1,-0.96,enough cells in well,146,84.2,inactive
Carmil1 (capping protein regulator and myosin 1 linker 1),2,-1.07,enough cells in well,109,123,inactive
Tmbim7 (transmembrane BAX inhibitor motif containing 7),1,,fewer than 50 cells per well; well left out of calls,171,58.3,inactive
Chmp1a (charged multivesicular body protein 1A),1,,fewer than 50 cells per well; well left out of calls,38.5,0,inactive
Megf11 (multiple EGF-like-domains 11),1,-0.3,enough cells in well,212,66.9,inactive
"C8b (complement component 8, beta polypeptide)",1,-0.7,enough cells in well,108,128,inactive
"Rabggta (Rab geranylgeranyl transferase, a subunit)",1,-0.79,enough cells in well,231,147,inactive
Ptp4a2 (protein tyrosine phosphatase 4a2),1,0.04,enough cells in well,251,193,inactive
Or8d1b (olfactory receptor family 8 subfamily D member 1B),1,1.3,enough cells in well,211,191,inactive
Rps27 (ribosomal protein S27),1,-0.49,enough cells in well,116,97.1,inactive
Ipo13 (importin 13),1,-1.41,enough cells in well,101,68.7,active
Ensa (endosulfine alpha),1,-0.43,enough cells in well,219,112,inactive
Hivep2,1,-1.72,enough cells in well,107,72.5,active
Otulinl (OTU deubiquitinase with linear linkage specificity like),1,0.56,enough cells in well,50.4,195,inactive
Armc1 (armadillo repeat containing 1),1,0.1,enough cells in well,182,166,inactive
Pdlim1 (PDZ and LIM domain 1 (elfin)),1,-0.07,enough cells in well,220,190,inactive
"Mon1a (MON1 homolog A, secretory traffciking associated)",1,,fewer than 50 cells per well; well left out of calls,172,22.2,inactive
Id4 (inhibitor of DNA binding 4),1,0.75,enough cells in well,311,224,inactive
Hoxc9 (homeobox C9),1,1.09,enough cells in well,294,285,inactive
Pheta2 (PH domain containing endocytic trafficking adaptor 2),1,,fewer than 50 cells per well; well left out of calls,146,97.3,inactive
Hnrnpa1 (heterogeneous nuclear ribonucleoprotein A1),1,-1.86,enough cells in well,105,51.7,active
Or2a7 (olfactory receptor family 2 subfamily A member 7),1,1.55,enough cells in well,370,147,inactive
Erp29 (endoplasmic reticulum protein 29),1,-0.27,enough cells in well,211,134,inactive
Kank3 (KN motif and ankyrin repeat domains 3),1,2.97,enough cells in well,461,255,inactive
"Col8a1 (collagen, type VIII, alpha 1)",1,-0.98,enough cells in well,169,136,inactive
Adam12 (ADAM metallopeptidase domain 12),1,-1.15,enough cells in well,130,103,inactive
Tsnax (translin-associated factor X),1,,fewer than 50 cells per well; well left out of calls,58.1,45.6,inactive
Cx3cl1 (C-X3-C motif chemokine ligand 1),1,-0.64,enough cells in well,193,150,inactive
Slc8b1,1,3.69,enough cells in well,232,222,active
Susd4 (sushi domain containing 4),1,0.04,enough cells in well,177,124,inactive
Cert1 (ceramide transporter 1),1,1.69,enough cells in well,369,196,inactive
Kcns3,1,0.33,enough cells in well,292,148,inactive
Dnm1 (dynamin 1),1,-0.87,enough cells in well,120,89.4,inactive
Raet1e (retinoic acid early transcript 1E),1,2.57,enough cells in well,212,272,inactive

A stretch from the list above, for reference:
Gene,reagent,Tnf reporter robust z-score,fewer than 50 cells in well,"Tnf reporter intensity, replicate 1","Tnf reporter intensity, replicate 2",outcome
Adam12 (ADAM metallopeptidase domain 12),1,-1.15,enough cells in well,130,103,inactive
Tsnax (translin-associated factor X),1,,fewer than 50 cells per well; well left out of calls,58.1,45.6,inactive
Cx3cl1 (C-X3-C motif chemokine ligand 1),1,-0.64,enough cells in well,193,150,inactive
Slc8b1,1,3.69,enough cells in well,232,222,active
Susd4 (sushi domain containing 4),1,0.04,enough cells in well,177,124,inactive
Cert1 (ceramide transporter 1),1,1.69,enough cells in well,369,196,inactive
Kcns3,1,0.33,enough cells in well,292,148,inactive
Dnm1 (dynamin 1),1,-0.87,enough cells in well,120,89.4,inactive
Raet1e (retinoic acid early transcript 1E),1,2.57,enough cells in well,212,272,inactive
